One compound from patent US20250151740A1, “COMPOSITION FOR PREVENTING FUNGAL SPOILAGE IN POST-HARVEST FRUITS, VEGETABLES AND FLOWERS, METHOD AND USE THEREOF” (BIOBAB R&D, S.L., priority 2022, published 2025) can be followed below.

The subject of the series is strawberries. As to the kind of experiment: Organoleptic analysis: volatile organic compounds of exposed strawberries (GC). The note with it: strawberries exposed for 5 days versus control.

Take `CC1=C(C=O)C(C)(C)CCC1` [β-CC, beta-cyclocitral]: the “changes in the VOCs released through the fruits” value was “No changes were observed”.
